Results are given in words; binding and its absence hold for the method and conditions named. Binding seen in cells or lysates may run through a third protein. Some binding calls cover weakened binding; strength is not graded here.
T1: TRAF6 (mouse (endogenous in RAW 264.7)) (UniProt P70196)
T1 sequence: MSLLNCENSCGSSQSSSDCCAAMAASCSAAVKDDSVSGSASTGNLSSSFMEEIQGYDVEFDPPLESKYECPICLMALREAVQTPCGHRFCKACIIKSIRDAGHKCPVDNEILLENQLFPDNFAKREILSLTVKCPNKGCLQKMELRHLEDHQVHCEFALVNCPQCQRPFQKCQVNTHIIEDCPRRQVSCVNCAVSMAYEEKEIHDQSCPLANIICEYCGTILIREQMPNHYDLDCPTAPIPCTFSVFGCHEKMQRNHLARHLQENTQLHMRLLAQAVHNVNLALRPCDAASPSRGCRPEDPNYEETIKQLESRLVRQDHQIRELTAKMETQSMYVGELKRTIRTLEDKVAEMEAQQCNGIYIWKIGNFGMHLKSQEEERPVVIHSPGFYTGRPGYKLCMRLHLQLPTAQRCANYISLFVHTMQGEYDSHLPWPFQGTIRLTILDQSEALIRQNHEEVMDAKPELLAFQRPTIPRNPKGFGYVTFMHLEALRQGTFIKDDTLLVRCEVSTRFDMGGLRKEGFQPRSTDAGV

The chains behind the UniProt entries cited, without tags or fusion partners.
UniProt A2A884: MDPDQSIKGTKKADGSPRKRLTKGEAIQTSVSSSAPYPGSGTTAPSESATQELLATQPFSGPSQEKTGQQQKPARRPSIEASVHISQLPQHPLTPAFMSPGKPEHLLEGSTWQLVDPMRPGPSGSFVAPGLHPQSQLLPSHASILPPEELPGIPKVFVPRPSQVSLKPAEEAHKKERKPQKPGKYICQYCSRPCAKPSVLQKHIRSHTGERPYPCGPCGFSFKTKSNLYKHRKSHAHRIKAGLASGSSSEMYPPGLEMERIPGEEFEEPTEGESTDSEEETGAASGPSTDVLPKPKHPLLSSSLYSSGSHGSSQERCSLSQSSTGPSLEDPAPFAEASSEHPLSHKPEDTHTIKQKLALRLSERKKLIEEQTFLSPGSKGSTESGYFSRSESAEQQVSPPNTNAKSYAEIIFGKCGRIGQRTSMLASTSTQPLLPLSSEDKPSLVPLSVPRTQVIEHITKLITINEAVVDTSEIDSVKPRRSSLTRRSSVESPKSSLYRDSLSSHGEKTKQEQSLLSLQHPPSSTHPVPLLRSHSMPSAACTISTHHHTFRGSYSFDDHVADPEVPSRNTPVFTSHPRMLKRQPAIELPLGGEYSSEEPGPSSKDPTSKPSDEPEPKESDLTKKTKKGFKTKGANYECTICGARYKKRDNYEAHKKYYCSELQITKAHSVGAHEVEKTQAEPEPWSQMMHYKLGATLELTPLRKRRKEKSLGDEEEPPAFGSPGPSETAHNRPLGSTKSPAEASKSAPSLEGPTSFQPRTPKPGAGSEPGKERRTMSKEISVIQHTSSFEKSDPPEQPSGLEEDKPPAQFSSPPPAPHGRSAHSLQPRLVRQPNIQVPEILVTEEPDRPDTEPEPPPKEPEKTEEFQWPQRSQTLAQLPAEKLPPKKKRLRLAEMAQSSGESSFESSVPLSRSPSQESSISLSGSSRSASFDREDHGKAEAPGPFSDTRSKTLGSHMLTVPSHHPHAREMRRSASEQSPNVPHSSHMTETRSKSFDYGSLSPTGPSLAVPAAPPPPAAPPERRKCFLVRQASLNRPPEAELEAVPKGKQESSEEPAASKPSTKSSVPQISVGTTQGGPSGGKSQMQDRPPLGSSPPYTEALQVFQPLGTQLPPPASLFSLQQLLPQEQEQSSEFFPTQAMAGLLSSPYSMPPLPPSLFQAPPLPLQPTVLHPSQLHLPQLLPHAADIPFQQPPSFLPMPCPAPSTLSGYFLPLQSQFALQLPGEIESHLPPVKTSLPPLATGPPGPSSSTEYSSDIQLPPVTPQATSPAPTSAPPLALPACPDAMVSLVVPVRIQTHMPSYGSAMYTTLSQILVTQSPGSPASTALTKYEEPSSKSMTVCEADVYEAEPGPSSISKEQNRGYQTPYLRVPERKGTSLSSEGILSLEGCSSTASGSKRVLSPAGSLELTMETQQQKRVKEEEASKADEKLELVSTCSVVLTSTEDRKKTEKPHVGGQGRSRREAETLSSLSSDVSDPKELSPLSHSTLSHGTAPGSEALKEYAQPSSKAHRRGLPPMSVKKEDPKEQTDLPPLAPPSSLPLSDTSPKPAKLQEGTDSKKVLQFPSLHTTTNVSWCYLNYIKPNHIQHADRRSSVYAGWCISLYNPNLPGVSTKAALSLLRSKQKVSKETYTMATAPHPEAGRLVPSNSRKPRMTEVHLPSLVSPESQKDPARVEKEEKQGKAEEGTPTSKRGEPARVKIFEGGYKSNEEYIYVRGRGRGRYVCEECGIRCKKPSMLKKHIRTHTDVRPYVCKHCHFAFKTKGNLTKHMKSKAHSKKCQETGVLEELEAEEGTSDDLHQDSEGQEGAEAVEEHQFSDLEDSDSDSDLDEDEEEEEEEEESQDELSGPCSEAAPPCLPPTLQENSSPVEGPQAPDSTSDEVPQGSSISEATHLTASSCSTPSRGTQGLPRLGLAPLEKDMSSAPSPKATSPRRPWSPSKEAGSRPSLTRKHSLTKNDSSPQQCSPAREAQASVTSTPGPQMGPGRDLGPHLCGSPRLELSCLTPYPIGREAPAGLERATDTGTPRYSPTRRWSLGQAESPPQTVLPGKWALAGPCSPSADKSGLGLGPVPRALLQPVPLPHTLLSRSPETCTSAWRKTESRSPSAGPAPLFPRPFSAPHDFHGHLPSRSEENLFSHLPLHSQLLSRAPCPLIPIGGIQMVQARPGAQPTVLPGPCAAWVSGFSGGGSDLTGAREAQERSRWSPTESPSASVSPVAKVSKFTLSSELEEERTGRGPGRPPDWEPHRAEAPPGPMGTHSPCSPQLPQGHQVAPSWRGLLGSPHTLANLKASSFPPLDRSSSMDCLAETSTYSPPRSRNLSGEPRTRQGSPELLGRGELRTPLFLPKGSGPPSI


Tests used:
[1] = biological target: T1, TRAF6 (mouse (endogenous in RAW 264.7)); experiment: co-IP; total lysates of RAW 264.7 cells incubated with sRANKL (50 ng/ml) for 2 days; IP with ZAS3, TRAF6 or control IgG antibodies (Catch and Release v2.0), 4°C for 16 hours, 5 washes; Western blot of the eluates
[2] = biological target: large zinc finger protein ZAS3 (mouse (endogenous in RAW 264.7)) (UniProt A2A884); experiment: as above

binding [1]	binding [2]	Molecule
binds	–	large zinc finger protein ZAS3 (from UniProt A2A884 1-2348)
–	binds	TRAF6 (protein, UniProt P70196 1-530) MSLLNCENSCGSSQSSSDCCAAMAASCSAAVKDDSVSGSASTGNLSSSFMEEIQGYDVEFDPPLESKYECPICLMALREAVQTPCGHRFCKACIIKSIRDAGHKCPVDNEILLENQLFPDNFAKREILSLTVKCPNKGCLQKMELRHLEDHQVHCEFALVNCPQCQRPFQKCQVNTHIIEDCPRRQVSCVNCAVSMAYEEKEIHDQSCPLANIICEYCGTILIREQMPNHYDLDCPTAPIPCTFSVFGCHEKMQRNHLARHLQENTQLHMRLLAQAVHNVNLALRPCDAASPSRGCRPEDPNYEETIKQLESRLVRQDHQIRELTAKMETQSMYVGELKRTIRTLEDKVAEMEAQQCNGIYIWKIGNFGMHLKSQEEERPVVIHSPGFYTGRPGYKLCMRLHLQLPTAQRCANYISLFVHTMQGEYDSHLPWPFQGTIRLTILDQSEALIRQNHEEVMDAKPELLAFQRPTIPRNPKGFGYVTFMHLEALRQGTFIKDDTLLVRCEVSTRFDMGGLRKEGFQPRSTDAGV

Source: paper PMC3048431
